# From the supplement of paper PMC11732987, “Enantioselective OTUD7B fragment discovery through chemoproteomics screening and high-throughput optimisation” (Communications Chemistry, 2025)
# This is one part of the list. The data scatter; read single values as rough.
# What was measured:
# [1] = compound: ClCC(=O)N[C@@H]1CCCc2ccccc12; experiment: log2 mean competition ratio of IA-DTB cysteine labelling (DMSO/compound) (log2 ratio); higher = stronger cysteine engagement by compound; details: treatment time: 4 h, cell line lysate: HEK293T
# Protocol: (§1)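 IA-DTB competitive cysteine chemoproteomics in HEK293T RIPA lysate. Lysates were treated with compound 29 or 30 at 50 or 200 µM for 4 h, then IA-DTB (500 µM, 1 h), trypsin-digested, NeutrAvidin-enriched and analysed by diaPASEF. Competition ratio = intensity DMSO / intensity compound (n=4 treated, n=64 DMSO); binding: mean log2 CR ≥ 1 and p ≤ 0.05 plus QC filters. Target is the cysteine site.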
# [2] = compound: ClCC(=O)N[C@H]1CCCc2ccccc12; experiment: as above; details: treatment time: 4 h, cell line lysate: HEK293T
# Protocol: as §1
target,measurement,setting,value
DCAF1 C1070 (UniProt Q9Y4B6),log2 mean competition ratio,[1]; 50 µM,0.178
same,log2 mean competition ratio,[1]; 200 µM,0.0199
same,log2 mean competition ratio,[2]; 50 µM,-0.0236
same,log2 mean competition ratio,[2]; 200 µM,-0.0279
DCLRE1A C207,log2 mean competition ratio,[1]; 50 µM,-0.236
same,log2 mean competition ratio,[1]; 200 µM,0.0278
same,log2 mean competition ratio,[2]; 50 µM,-0.158
same,log2 mean competition ratio,[2]; 200 µM,0.124
CRYL1 C285 (UniProt Q9Y2S2),log2 mean competition ratio,[1]; 50 µM,0.0733
same,log2 mean competition ratio,[1]; 200 µM,-0.18
same,log2 mean competition ratio,[2]; 50 µM,0.163
same,log2 mean competition ratio,[2]; 200 µM,-0.278
DCP2 C158 (UniProt Q8IU60),log2 mean competition ratio,[1]; 50 µM,-0.18
same,log2 mean competition ratio,[1]; 200 µM,-0.0849
same,log2 mean competition ratio,[2]; 50 µM,-0.0755
same,log2 mean competition ratio,[2]; 200 µM,-0.207
CUL2 C721 (UniProt Q13617),log2 mean competition ratio,[1]; 50 µM,-0.19
same,log2 mean competition ratio,[1]; 200 µM,-0.351
same,log2 mean competition ratio,[2]; 50 µM,0.39
same,log2 mean competition ratio,[2]; 200 µM,-0.141
DCAF7 C61 (UniProt P61962),log2 mean competition ratio,[1]; 50 µM,-0.159
same,log2 mean competition ratio,[1]; 200 µM,0.292
same,log2 mean competition ratio,[2]; 50 µM,0.00355
same,log2 mean competition ratio,[2]; 200 µM,0.0857
DDX51 C253 (UniProt Q8N8A6),log2 mean competition ratio,[1]; 50 µM,0.242
same,log2 mean competition ratio,[1]; 200 µM,0.408
same,log2 mean competition ratio,[2]; 50 µM,-0.17
same,log2 mean competition ratio,[2]; 200 µM,0.268
DARS2 C371 (UniProt Q6PI48),log2 mean competition ratio,[1]; 50 µM,-0.159
same,log2 mean competition ratio,[1]; 200 µM,0.0336
same,log2 mean competition ratio,[2]; 50 µM,0.0748
same,log2 mean competition ratio,[2]; 200 µM,0.0985
DAGLB C465 (UniProt Q8NCG7),log2 mean competition ratio,[1]; 50 µM,-0.00162
same,log2 mean competition ratio,[1]; 200 µM,-0.0476
same,log2 mean competition ratio,[2]; 50 µM,0.095
same,log2 mean competition ratio,[2]; 200 µM,-0.0207
CRKL C44 (UniProt P46109),log2 mean competition ratio,[1]; 50 µM,-0.175
same,log2 mean competition ratio,[1]; 200 µM,-0.246
same,log2 mean competition ratio,[2]; 50 µM,0.395
same,log2 mean competition ratio,[2]; 200 µM,-0.0934
DCAF15 C347 (UniProt Q66K64),log2 mean competition ratio,[1]; 50 µM,-0.191
same,log2 mean competition ratio,[1]; 200 µM,0.319
same,log2 mean competition ratio,[2]; 50 µM,-0.488
same,log2 mean competition ratio,[2]; 200 µM,0.208
CUL1 C752 (UniProt Q13616),log2 mean competition ratio,[1]; 50 µM,-0.157
same,log2 mean competition ratio,[1]; 200 µM,-0.368
same,log2 mean competition ratio,[2]; 50 µM,0.104
same,log2 mean competition ratio,[2]; 200 µM,-0.142
CTTN C112 (UniProt Q14247),log2 mean competition ratio,[1]; 50 µM,0.229
same,log2 mean competition ratio,[1]; 200 µM,0.285
same,log2 mean competition ratio,[2]; 50 µM,0.262
same,log2 mean competition ratio,[2]; 200 µM,0.269
CSRP2 C122 (UniProt Q16527),log2 mean competition ratio,[1]; 50 µM,0.081
same,log2 mean competition ratio,[1]; 200 µM,0.17
same,log2 mean competition ratio,[2]; 50 µM,-0.159
same,log2 mean competition ratio,[2]; 200 µM,0.151
DCAF1 C967 (UniProt Q9Y4B6),log2 mean competition ratio,[1]; 50 µM,-0.0246
same,log2 mean competition ratio,[1]; 200 µM,0.148
same,log2 mean competition ratio,[2]; 50 µM,-0.0409
same,log2 mean competition ratio,[2]; 200 µM,0.341
DCUN1D4 C170 (UniProt Q92564),log2 mean competition ratio,[1]; 50 µM,0.078
same,log2 mean competition ratio,[1]; 200 µM,0.0117
same,log2 mean competition ratio,[2]; 50 µM,0.0533
same,log2 mean competition ratio,[2]; 200 µM,0.349
DDX31 C413 (UniProt Q9H8H2),log2 mean competition ratio,[1]; 50 µM,0.0824
same,log2 mean competition ratio,[1]; 200 µM,0.0476
same,log2 mean competition ratio,[2]; 50 µM,-0.056
same,log2 mean competition ratio,[2]; 200 µM,-0.0887
DARS2 C459 (UniProt Q6PI48),log2 mean competition ratio,[1]; 50 µM,0.0447
same,log2 mean competition ratio,[1]; 200 µM,0.327
same,log2 mean competition ratio,[2]; 50 µM,-0.207
same,log2 mean competition ratio,[2]; 200 µM,0.297
DDX41 C264 (UniProt Q9UJV9),log2 mean competition ratio,[1]; 50 µM,-0.0818
same,log2 mean competition ratio,[1]; 200 µM,-0.0811
same,log2 mean competition ratio,[2]; 50 µM,-0.397
same,log2 mean competition ratio,[2]; 200 µM,0.0352
DECR2 C80 (UniProt Q9NUI1),log2 mean competition ratio,[1]; 50 µM,0.219
same,log2 mean competition ratio,[1]; 200 µM,0.0135
same,log2 mean competition ratio,[2]; 50 µM,0.298
same,log2 mean competition ratio,[2]; 200 µM,0.308
CYC1 C139 (UniProt P08574),log2 mean competition ratio,[1]; 50 µM,0.13
same,log2 mean competition ratio,[1]; 200 µM,-0.035
same,log2 mean competition ratio,[2]; 50 µM,0.136
same,log2 mean competition ratio,[2]; 200 µM,-0.0256
DECR2 C22 (UniProt Q9NUI1),log2 mean competition ratio,[1]; 50 µM,-0.232
same,log2 mean competition ratio,[1]; 200 µM,-0.131
same,log2 mean competition ratio,[2]; 50 µM,-0.437
same,log2 mean competition ratio,[2]; 200 µM,-0.205
DDOST C145 (UniProt P39656),log2 mean competition ratio,[1]; 50 µM,-0.156
same,log2 mean competition ratio,[1]; 200 µM,-0.317
same,log2 mean competition ratio,[2]; 50 µM,0.0636
same,log2 mean competition ratio,[2]; 200 µM,-0.195
DCAF4 C88 (UniProt Q8WV16),log2 mean competition ratio,[1]; 50 µM,0.0854
same,log2 mean competition ratio,[1]; 200 µM,-0.256
same,log2 mean competition ratio,[2]; 50 µM,0.0327
same,log2 mean competition ratio,[2]; 200 µM,0.0234
CUL7 C60 (UniProt Q14999),log2 mean competition ratio,[1]; 50 µM,0.261
same,log2 mean competition ratio,[1]; 200 µM,-0.0351
same,log2 mean competition ratio,[2]; 50 µM,-0.0521
same,log2 mean competition ratio,[2]; 200 µM,0.226
CUL1 C426 (UniProt Q13616),log2 mean competition ratio,[1]; 50 µM,-0.0376
same,log2 mean competition ratio,[1]; 200 µM,0.237
same,log2 mean competition ratio,[2]; 50 µM,0.157
same,log2 mean competition ratio,[2]; 200 µM,0.207
DDX17 C584 (UniProt Q92841),log2 mean competition ratio,[1]; 50 µM,-0.00797
same,log2 mean competition ratio,[1]; 200 µM,0.296
same,log2 mean competition ratio,[2]; 50 µM,0.0108
same,log2 mean competition ratio,[2]; 200 µM,0.385
CRBN C326 (UniProt Q96SW2),log2 mean competition ratio,[1]; 50 µM,-0.281
same,log2 mean competition ratio,[1]; 200 µM,0.28
same,log2 mean competition ratio,[2]; 50 µM,-0.594
same,log2 mean competition ratio,[2]; 200 µM,0.326
CSE1L C939 (UniProt P55060),log2 mean competition ratio,[1]; 50 µM,0.143
same,log2 mean competition ratio,[1]; 200 µM,0.0323
same,log2 mean competition ratio,[2]; 50 µM,0.217
same,log2 mean competition ratio,[2]; 200 µM,0.0842
CTU2 C2 (UniProt Q2VPK5),log2 mean competition ratio,[1]; 50 µM,-0.224
same,log2 mean competition ratio,[1]; 200 µM,-0.171
same,log2 mean competition ratio,[2]; 50 µM,0.147
same,log2 mean competition ratio,[2]; 200 µM,-0.101
CTTNBP2NL C76 (UniProt Q9P2B4),log2 mean competition ratio,[1]; 50 µM,-0.251
same,log2 mean competition ratio,[1]; 200 µM,0.136
same,log2 mean competition ratio,[2]; 50 µM,-0.476
same,log2 mean competition ratio,[2]; 200 µM,0.211

# 33 entries from above, with bars between the fields.
target | measurement | setting | value
DCAF1 C967 (UniProt Q9Y4B6) | log2 mean competition ratio | [2]; 50 µM | -0.0409
same | log2 mean competition ratio | [2]; 200 µM | 0.341
DCUN1D4 C170 (UniProt Q92564) | log2 mean competition ratio | [1]; 50 µM | 0.078
same | log2 mean competition ratio | [1]; 200 µM | 0.0117
same | log2 mean competition ratio | [2]; 50 µM | 0.0533
same | log2 mean competition ratio | [2]; 200 µM | 0.349
DDX31 C413 (UniProt Q9H8H2) | log2 mean competition ratio | [1]; 50 µM | 0.0824
same | log2 mean competition ratio | [1]; 200 µM | 0.0476
same | log2 mean competition ratio | [2]; 50 µM | -0.056
same | log2 mean competition ratio | [2]; 200 µM | -0.0887
DARS2 C459 (UniProt Q6PI48) | log2 mean competition ratio | [1]; 50 µM | 0.0447
same | log2 mean competition ratio | [1]; 200 µM | 0.327
same | log2 mean competition ratio | [2]; 50 µM | -0.207
same | log2 mean competition ratio | [2]; 200 µM | 0.297
DDX41 C264 (UniProt Q9UJV9) | log2 mean competition ratio | [1]; 50 µM | -0.0818
same | log2 mean competition ratio | [1]; 200 µM | -0.0811
same | log2 mean competition ratio | [2]; 50 µM | -0.397
same | log2 mean competition ratio | [2]; 200 µM | 0.0352
DECR2 C80 (UniProt Q9NUI1) | log2 mean competition ratio | [1]; 50 µM | 0.219
same | log2 mean competition ratio | [1]; 200 µM | 0.0135
same | log2 mean competition ratio | [2]; 50 µM | 0.298
same | log2 mean competition ratio | [2]; 200 µM | 0.308
CYC1 C139 (UniProt P08574) | log2 mean competition ratio | [1]; 50 µM | 0.13
same | log2 mean competition ratio | [1]; 200 µM | -0.035
same | log2 mean competition ratio | [2]; 50 µM | 0.136
same | log2 mean competition ratio | [2]; 200 µM | -0.0256
DECR2 C22 (UniProt Q9NUI1) | log2 mean competition ratio | [1]; 50 µM | -0.232
same | log2 mean competition ratio | [1]; 200 µM | -0.131
same | log2 mean competition ratio | [2]; 50 µM | -0.437
same | log2 mean competition ratio | [2]; 200 µM | -0.205
DDOST C145 (UniProt P39656) | log2 mean competition ratio | [1]; 50 µM | -0.156
same | log2 mean competition ratio | [1]; 200 µM | -0.317
same | log2 mean competition ratio | [2]; 50 µM | 0.0636
